Measurements as given in US8628938B2, “Polynucleotide encoding UDP-glucuronyl transferase” (Suntory Holdings Limited, priority 2007, dated 2014).
For some assays here: For at least one compound, name, drawing or mass did not settle the structure. Some entries share one result that the patent states for a list of compounds.

B1: PfUGT50: UDP-glucuronosyltransferase having the amino acid sequence of SEQ ID NO: 5, derived from Perilla frutescens a red-leaf variety (protein, listed as Perilla frutescens)
chain: MEGVILLYSSAEHLNSMLLLATFIAKHHPSIPITILSSADYSAAASVSTLPSITYRRLPPVAIPPDSIKNPVEAFFEIPRLQNPNLRVALEEISQKTRIRAFVIDFFCNSAFEVSTSLSIPTYFYVSTGSAGVCIFLYFPTTDETVATDIGDLRDFLEFPGSPIIHSSDLPQLTFFRRSNVFKHMLDTSKNMQKSSGILTNGFDAMEFRAKEALTNGLCVPNGPTPPVYLVGPLVAGSNAKKDHECLLWLDRQPSKSVVFLCFGRRGLFSGKQLREMAVALERSGYRFLWSVRNPPENRSPAEDPDLDELLPEGFLERTKDIGFVVKSWAPQKEVLSHDAVAGFVTHCGRSSILEALVNGKPMIGWPMYAEQRMNKVFMVDEMKVALPLEEEEDGFVTAVELEKRLRQLMESKTGRDVRHRVAEMKAAATAAMGENGSAVVALRKFIDSVTRD
B2: AmUGTcg10: UDP-glucuronosyltransferase having the amino acid sequence of SEQ ID NO: 13, derived from Antirrhinum majus (protein, listed as Antirrhinum majus)
chain: MEDTIVLYASAEHLNSMLLLGKLINKHHPTISVAIISTAPNAAASSVADVAAISYQQLKPATLPSDLTKNPIELFFEIPRLHNPNLLEALEELSLKSKVRAFVIDFFCNPAFEVSTSLNIPTYFYVSSGAFGLCGFLHFPTIDETVEKDIGELNDILEIPGCPPVLSSDFPKGMFFRKSNTYKHFLDTAKNMRRAKGIVVNAFDAMEFRAKEALVNNLCVPNSPTPPVFLVGPLVGASTTTKTTNEQHECLKWLDVQPDRSVIFLCFGRRGLFSADQLKEIAIGLENSGHRFLWSVRCPPSKPNSYNTDPDLDELLPEGFLSRTETRGFVIKSWAPQKEVLSHGAVGGFVTHCGRSSILEAVSFGVPMIGWPIYAEQRMNRVFMVEEMKVALQLDEVEEGFVAAVELEKRVKELMDSKNGRAVRQRVKEMKVAAEVAVEKGGSSVVALQRFVDMVVS

How the values were obtained:
AmUGTcg10 = assay: UDP-glucuronosyltransferase activity assay (HPLC) with recombinant AmUGTcg10; format: biochemical, Antirrhinum majus
Procedure: (§1) Escherichia coli BL21 (DE3) was transformed with each plasmid obtained in 4-(1) above. The transformant obtained was shake cultured overnight at 37° C. in 4 ml of LB medium (10 g/l tryptone, 5 g/l yeast extract, 1 g/l NaCl) supplemented with 50 μg/ml of ampicillin. The culture broth, 4 ml, which reached the stationary phase, was inoculated into 80 ml of the medium with the same composition, followed by shake culture at 37° C. When the cell turbidity (OD600) reached approximately 0.5, 0.4 mM IPTG (isopropyl-β-thiogalactopyranoside) in a final concentration was added to the medium, followed by shake culture at 22° C. for 20 hours. All of the subsequent procedures were performed at 4° C. The transformants cultured were centrifuged (7,000×g, 15 mins.) to collect the cells, and 2 ml/g cell of Buffer S (20 mM sodium phosphate buffer (pH 7.4), 20 mM imidazole, 0.5 M NaCl, 14 mM β-mercaptoethanol) was added to the cells for suspension. Subsequently, ultrasonication was performed (15 secs.×8) followed by centrifugation (15,000×g, 10 mins.). To the supernatant obtained, 0.12% (w/v) polyethyleneimine in a final concentration was added to […], which was then allowed to stand for 30 minutes. The mixture was centrifuged (15,000×g, 10 mins.) and the supernatant was recovered as a crude enzyme solution. […]

S1UGT = assay: UDP-glucuronosyltransferase activity assay (HPLC) with recombinant S1UGT; format: biochemical, Scutellaria laeteviolacea v. yakusimensis; settings: 100 μM glycosyl acceptor substrate, 2 mM UDP-glucuronic acid, pH 7.5, 30° C., 30 minutes
Procedure: as §1

PfUGT50 = assay: UDP-glucuronosyltransferase activity assay (HPLC) with recombinant PfUGT50; format: biochemical, Perilla frutescens
Procedure: as §1

SiUGT23 = assay: UDP-glucuronosyltransferase activity assay (HPLC) with recombinant SiUGT23; format: biochemical, Sesamum indicum; settings: 100 μM glycosyl acceptor substrate, 2 mM UDP-glucuronic acid, pH 7.5, 30° C., 30 minutes
Procedure: Standard reaction conditions are as follows. A reaction solution (2 mM UDP-glucuronic acid, 100 μM glycosyl acceptor substrate, 50 mM potassium phosphate buffer (pH 7.5), enzyme solution), 50 μl, was prepared and the enzyme solution was added to initiate the reaction at 30° C. for 30 minutes. The reaction was stopped by adding 50 μl of 0.5% TFA in CH3CN and provided for HPLC analysis. The conditions for HPLC are as follows: column, Develosil C30-UG-5 (4.6×150 mm); eluant A, 0.1% TFA/H2O; eluant B, 0.08% TFA/90% CH3CN; conditions A for elution (except for aurone, catechin, coumarine and phenylpropanoid), 0 min/5% B→18 min/100% eluant B'18.1 min/5% B→25 min/5% B; conditions B for elution (aurone, catechin, coumarine and phenylpropanoid), 0 min/5% B→20 min/50% eluant B→20.5 min/5% B→25 min/5% B; flow rate, 1 ml/min; detection wavelength: 280 and 350 nm.
cDNA containing full-length ORF of SiUGT23 derived from Sesamum indicum was amplified by a gene-specific primer set (SEQ ID NOs: 24 and 25). cDNA synthesized using total RNA extracted from sesame seeds was used as a template. SiUGT23 was incorporated into Escherichia coli expression vector as in UGT of Perilla frutescens, Scutellaria laeteviolacea v. yakusimensis and Antirrhinum majus in EXAMPLE 1 and recombinant SiUGT23 protein was expressed in the same way to assay the enzyme activity.

Sb7GAT = settings: enzyme purified from Scutellaria baicalensis; Nagashima et al. 2000; cited from earlier work
[1] = Analysis of pH and temperature characteristics of the recombinant enzymes; format: biochemical; settings: an hour, pH 7.5; treated at 15 to 55° C.
Procedure: Temperature stability was analyzed as follows. An enzyme solution was treated at 15 to 55° C. for an hour and then cooled to 4° C. Using the sample cooled, the residual activity was determined under standard reaction conditions. After 167 mM final concentration of a buffer solution (pH 4, 4.5, 5, Acetate-NaOH; pH 5.5, 6, 6.5, 7, 7.5, NaH2PO4-NaOH; pH 8, 8.5, 9, Tris-HCl) was added to the enzyme solution, the mixture was treated at 4° C. for an hour and then 500 mM final concentration of potassium phosphate buffer (pH 7.5) was added thereto. Using the sample treated, the residual activity was determined under standard reaction conditions. The reaction was performed under standard reaction conditions where the reaction temperature was set at 10 to 55° C. to analyze the reaction temperature dependency. Reaction pH dependency was analyzed under standard reaction conditions using a buffer solution (pH 4, 4.5, 5, Acetate-NaOH; pH 5.5, 6, 6.5, 7, 7.5, NaH2PO4—NaOH; pH 8, 8.5, 9, Tris-HCl) in place of potassium phosphate buffer (pH 7.5). […] PfUGT50 was stable at 30° C. or lower (an hour, pH 7.5) and the reaction optimum temperature was 30° C. in the activity assay for 30 minutes. […] This enzyme was stable at 40° C. or lower (an hour, pH 7.5) and the reaction optimum temperature was 35° C. in the activity assay for 30 minutes. […]

[2] = 100 μM glycosyl acceptor substrate, 2 mM UDP-glucuronic acid, pH 7.5, 30° C., 30 minutes

Molecule | relative activity to each substrate, taking the activity to scutellarein as 100% (S1UGT) [%] | relative activity to each substrate, taking the activity to scutellarein as 100% (SiUGT23) [%] | temperature at which the enzyme was stable (residual activity) [1] [°C] | also measured
COc1ccc(-c2coc3cc(O)ccc3c2=O)cc1 [formononetin] | 0.08 | 0.03 |  | glucuronosyl transfer activity to glycosyl acceptor substrate (in words) (AmUGTcg10; standard reaction conditions): no activity; glucuronosyl transfer activity to glycosyl acceptor substrate (in words) (PfUGT50; standard reaction conditions): no activity
O=c1cc(-c2ccc(O)cc2)oc2cc(O)c(O)c(O)c12 [scutellarein] | 100 | 100 |  | action of Sb7GAT on the substrate (Sb7GAT): acts; relative activity to each substrate, taking the activity to scutellarein as 100% (AmUGTcg10; [2]): 100%; relative activity to each substrate, taking the activity to scutellarein as 100% (PfUGT50; [2]): 100%
B1 |  |  | ≤ 30 | 
B2 |  |  | ≤ 30 | 
